Percent effect of library compounds

Sequences of proteins named here, by UniProt entry; tags and fusion partners are left off. Residues count along the entry.
UniProt I6X8D2, whole entry: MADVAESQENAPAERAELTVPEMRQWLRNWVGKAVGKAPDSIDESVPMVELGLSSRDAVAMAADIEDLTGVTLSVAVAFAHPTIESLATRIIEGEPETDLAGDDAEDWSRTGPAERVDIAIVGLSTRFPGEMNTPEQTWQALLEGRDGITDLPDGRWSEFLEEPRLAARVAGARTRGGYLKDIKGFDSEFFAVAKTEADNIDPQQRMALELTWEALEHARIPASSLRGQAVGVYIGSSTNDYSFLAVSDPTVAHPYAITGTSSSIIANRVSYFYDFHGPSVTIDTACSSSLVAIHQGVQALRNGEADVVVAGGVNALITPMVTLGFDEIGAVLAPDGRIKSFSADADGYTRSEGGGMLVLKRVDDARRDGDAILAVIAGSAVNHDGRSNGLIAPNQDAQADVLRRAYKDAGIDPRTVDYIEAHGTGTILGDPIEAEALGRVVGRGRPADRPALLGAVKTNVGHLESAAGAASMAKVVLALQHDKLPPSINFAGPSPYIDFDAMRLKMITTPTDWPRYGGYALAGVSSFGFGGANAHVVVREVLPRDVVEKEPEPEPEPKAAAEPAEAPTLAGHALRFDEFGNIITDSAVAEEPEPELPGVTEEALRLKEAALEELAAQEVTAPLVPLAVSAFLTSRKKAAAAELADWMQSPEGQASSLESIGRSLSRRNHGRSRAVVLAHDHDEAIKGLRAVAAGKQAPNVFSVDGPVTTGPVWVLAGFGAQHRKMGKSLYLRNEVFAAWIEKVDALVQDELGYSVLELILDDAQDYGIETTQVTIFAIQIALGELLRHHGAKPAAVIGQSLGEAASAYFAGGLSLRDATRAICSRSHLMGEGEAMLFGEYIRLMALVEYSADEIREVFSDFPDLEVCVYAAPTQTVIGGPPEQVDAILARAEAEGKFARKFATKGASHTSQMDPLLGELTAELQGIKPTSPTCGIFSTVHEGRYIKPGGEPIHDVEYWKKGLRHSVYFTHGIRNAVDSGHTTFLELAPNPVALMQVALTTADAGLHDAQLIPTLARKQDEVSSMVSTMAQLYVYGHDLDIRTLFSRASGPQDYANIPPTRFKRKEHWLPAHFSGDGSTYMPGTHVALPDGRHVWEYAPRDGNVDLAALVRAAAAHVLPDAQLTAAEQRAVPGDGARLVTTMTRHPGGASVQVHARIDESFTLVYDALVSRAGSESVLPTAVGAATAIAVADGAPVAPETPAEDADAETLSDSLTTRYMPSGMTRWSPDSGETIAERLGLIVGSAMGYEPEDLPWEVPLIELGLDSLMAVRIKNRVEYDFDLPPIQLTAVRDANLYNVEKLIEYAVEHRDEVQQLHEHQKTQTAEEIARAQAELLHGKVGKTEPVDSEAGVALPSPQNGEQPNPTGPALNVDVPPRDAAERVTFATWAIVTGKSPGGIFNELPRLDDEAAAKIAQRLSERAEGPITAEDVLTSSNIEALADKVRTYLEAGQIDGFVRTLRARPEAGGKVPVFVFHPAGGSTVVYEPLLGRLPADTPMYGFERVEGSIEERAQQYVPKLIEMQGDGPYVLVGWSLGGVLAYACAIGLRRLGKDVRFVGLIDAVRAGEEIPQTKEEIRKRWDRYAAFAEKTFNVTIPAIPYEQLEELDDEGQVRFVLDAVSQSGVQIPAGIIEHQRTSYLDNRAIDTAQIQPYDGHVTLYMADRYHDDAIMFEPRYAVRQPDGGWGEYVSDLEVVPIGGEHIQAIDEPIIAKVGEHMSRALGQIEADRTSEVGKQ
UniProt Q4DA54, 1-478: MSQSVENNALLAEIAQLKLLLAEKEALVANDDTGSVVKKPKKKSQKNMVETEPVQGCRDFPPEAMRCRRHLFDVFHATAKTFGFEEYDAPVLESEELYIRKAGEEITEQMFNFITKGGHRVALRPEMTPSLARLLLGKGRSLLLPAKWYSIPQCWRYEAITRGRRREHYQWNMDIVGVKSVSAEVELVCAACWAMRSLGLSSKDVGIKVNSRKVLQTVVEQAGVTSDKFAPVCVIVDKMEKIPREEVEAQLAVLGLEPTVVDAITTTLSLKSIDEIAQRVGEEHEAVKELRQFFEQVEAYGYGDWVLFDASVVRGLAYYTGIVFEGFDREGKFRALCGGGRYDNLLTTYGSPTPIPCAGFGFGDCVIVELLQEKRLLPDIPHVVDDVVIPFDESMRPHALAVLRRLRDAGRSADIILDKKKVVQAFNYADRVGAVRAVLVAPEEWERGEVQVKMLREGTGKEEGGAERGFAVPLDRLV
UniProt P9WPC5, whole entry: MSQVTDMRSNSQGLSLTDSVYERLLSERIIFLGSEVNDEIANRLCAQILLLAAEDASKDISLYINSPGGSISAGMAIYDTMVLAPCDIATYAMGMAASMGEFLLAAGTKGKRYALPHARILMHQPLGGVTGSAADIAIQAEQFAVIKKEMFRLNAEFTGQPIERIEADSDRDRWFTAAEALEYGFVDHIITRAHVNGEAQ
UniProt P9WPC3, whole entry partner: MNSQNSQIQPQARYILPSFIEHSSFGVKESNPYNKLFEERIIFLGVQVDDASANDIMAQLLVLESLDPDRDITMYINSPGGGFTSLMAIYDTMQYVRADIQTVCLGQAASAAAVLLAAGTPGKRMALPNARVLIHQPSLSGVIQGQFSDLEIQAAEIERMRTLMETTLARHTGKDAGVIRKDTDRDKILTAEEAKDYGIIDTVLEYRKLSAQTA
UniProt A4I591, 1-473: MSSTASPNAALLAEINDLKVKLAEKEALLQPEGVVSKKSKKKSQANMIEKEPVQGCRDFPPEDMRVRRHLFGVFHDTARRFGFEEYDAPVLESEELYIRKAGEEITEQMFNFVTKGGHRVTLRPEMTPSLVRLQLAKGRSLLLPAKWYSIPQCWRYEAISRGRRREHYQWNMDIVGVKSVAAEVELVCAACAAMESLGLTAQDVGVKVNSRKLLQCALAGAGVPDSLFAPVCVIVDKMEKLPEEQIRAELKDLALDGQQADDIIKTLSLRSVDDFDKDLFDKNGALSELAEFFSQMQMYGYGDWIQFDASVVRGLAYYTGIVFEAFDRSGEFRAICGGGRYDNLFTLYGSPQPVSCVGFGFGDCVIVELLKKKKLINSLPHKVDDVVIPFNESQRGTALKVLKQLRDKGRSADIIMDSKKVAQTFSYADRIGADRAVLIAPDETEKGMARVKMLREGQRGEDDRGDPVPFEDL

Source: ChEMBL document CHEMBL3988442, “University of Dundee, Small-Polar-MMV Screening Library” (2021).

Each number is a percent effect as filed.
The controls that fix the scale are not given in the record; negative values are as filed.
This is an unselected part of the compounds tested.

A: 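Enzyme assay of the thioesterase domain of polyketide synthase 13; the read-out is not stated. Target: Polyketide synthase Pks13, Mycobacterium tuberculosis (UniProt I6X8D2). Compounds at 30 µM. The record gives no direction; the compounds picked for IC50 retests had high values, so higher reads as stronger inhibition. Size under these conditions: about 67,000 compounds, about 300 of them at 50% or above in at least one test.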
B: 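Enzyme assay of histidyl-tRNA synthetase; the read-out is not stated. Target: Histidine-tRNA ligase, Trypanosoma cruzi CL Brener (UniProt Q4DA54). Concentration: 30 µM. The record gives no direction; compounds that gave an IC50 in retests scored well above the rest, so higher reads as stronger inhibition. Size under these conditions: about 69,000 compounds, about 31 of them at 50% or above in at least one test.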
C: 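Protease assay of ClpP1P2, read by the AMC dye that it sets free. Target: ClpP1P2, Mycobacterium tuberculosis (UniProt P9WPC5 and UniProt P9WPC3). Concentration: 50 µM. Higher reads as stronger inhibition, judged from the few compounds that gave an IC50. Most other retested compounds had strongly negative values. About 69,000 compounds were tested under these conditions; 0.015% (about 10) showed 50% or more at least once.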
D: 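Cell assay of Leishmania donovani living inside macrophages; the read-out is not stated. Compounds at 30 µM. The record gives no direction; compounds that gave an IC50 in retests scored well above the rest, so higher reads as stronger inhibition. Of about 69,000 compounds tested this way, about 1,000 (1.5%) reached 50% or more in at least one test.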
E: 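Histidine-tRNA ligase, Leishmania infantum (UniProt A4I591). Enzyme assay of histidyl-tRNA synthetase; the read-out is not stated. Tested at 30 µM. Direction is inferred from retests: higher values go with stronger inhibition. The assay is labelled LdHisRS but filed under L. infantum. About 69,000 compounds were tested under these conditions; 0.6% (about 410) showed 50% or more at least once.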

{"compound": "Cc1ccc(N2CCN(C(=O)CCC(F)(F)F)C(C)C2)cc1", "stereo": "centres unmarked", "A": -32.4, "B": 0, "C": -8.748, "D": 5.072, "E": 12.28}
{"compound": "O=C(COc1ccc(C(F)(F)F)cc1)N1CCOCC1c1ncon1", "stereo": "centres unmarked", "A": 3.062, "B": 0.2907, "C": -21.67, "D": 8.708, "E": 9.649}
{"compound": "C=C(C)CN(CC)Cc1nc(C)no1", "A": -17.17, "B": 2.703, "C": 0.3607, "D": -13.53, "E": 1.709}
{"compound": "COCc1nc(C(=O)OCC2CCN(c3ccccc3)C2)cs1", "stereo": "centres unmarked", "A": 58.1, "B": 5.521, "C": -9.978, "D": -78.1, "E": 17.28}
{"compound": "Cc1cc(N2CCCC2c2cncc(N(C)C)n2)ncn1", "stereo": "centres unmarked", "A": -0.2317, "B": 7.491, "C": 8.01, "D": -5.112, "E": 8}
{"compound": "Cc1nnsc1C(=O)NCc1cccnc1N1CCCC(O)C1", "stereo": "centres unmarked", "A": -0.1058, "B": -6.098, "C": -4.436, "D": -21.45, "E": 1.205}
{"compound": "O=C1N(Cc2ccc(F)cc2)CCCC12CCN(C1CCSCC1)C2", "stereo": "centres unmarked", "A": -30.04, "B": 19.67, "C": -18.87, "D": 9.88, "E": 29.82}
{"compound": "Cn1cc(CCNC(=O)c2cc3ccccc3nc2N2CCCC2)cn1", "A": -0.2847, "B": 15, "C": 11.15, "D": 18.15, "E": 18.92}
{"compound": "O=C(CN1CCCCC1Cn1cccn1)NC1CCN(C2CC2)CC1", "stereo": "centres unmarked", "A": -11.98, "B": 1.667, "C": -8.271, "D": 29.41, "E": 9.615}
{"compound": "Cn1cccc1C(=O)N1C[C@@H](OCc2ccncc2)[C@@H]2OCCC[C@@H]21", "A": -2.651, "B": 0, "C": 7.752, "E": 23.08}
{"compound": "COc1ccc2ccccc2c1CNCC1CCS(=O)(=O)C1", "stereo": "centres unmarked", "A": -20.52, "B": 10.23, "C": -1.298, "E": 11.67}
{"compound": "CSCCN1CCC(NC(=O)c2cccc(C3CCCNC3)c2)CC1", "stereo": "centres unmarked", "A": -3.533, "B": 5.473, "C": 4.731, "D": -42.96, "E": 1.205}
{"compound": "CC(C)CN1CCC(c2nc3ccc(NC(C)C)cn3n2)CC1.O=C(O)C(F)(F)F.O=C(O)C(F)(F)F", "D": 3.893}
{"compound": "NC(=O)c1ccc(S(=O)(=O)NCCc2ccccn2)cc1", "A": 8.796, "B": 3.448, "C": 0.7664, "D": -7.076, "E": 11.69}
{"compound": "Cc1cnn(CCC(=O)N2CCN(c3nc(C)cs3)CC2)c1", "A": -18.4, "B": 2.256, "C": 0.6567, "D": 8.013, "E": -14.61}
{"compound": "Cc1nnsc1CNC(=O)Nc1cccc(N2CCN(C)C2=O)c1", "A": 17, "B": 6.173, "C": 0.06996, "D": 28.02, "E": 11.76}
{"compound": "COc1ccc(CCN(C)C2CCCN(Cc3noc(C)n3)C2)cc1", "stereo": "centres unmarked", "A": -6.927, "B": 4.094, "C": 24.51, "D": 21.43, "E": -3.636}
{"compound": "CCN(CC)c1ccc(NS(=O)(=O)c2cccnc2)cn1", "A": 0.2072, "B": 10.2, "C": -5.405, "D": 32.6, "E": 27.42}
{"compound": "CCOc1ccc(-n2ccc3nc(N4CCCC4)ncc3c2=O)cc1", "A": -31.27, "B": 3.409, "C": -1.717, "D": 18.19, "E": 8.333}
{"compound": "C=C(C)COc1ccc(C(=O)N(C)C(C)c2ccon2)cc1", "stereo": "centres unmarked", "A": -19.53, "B": 6.077, "C": 1.079, "D": -19.18, "E": 7.292}
{"compound": "CCCn1cnnc1CNC(=O)CC1C(=O)NCCN1C(C)C", "stereo": "centres unmarked", "A": 1.867, "B": -1.136, "C": 4.687, "D": -20.78, "E": 13.33}
{"compound": "CCc1ccc(C(C)NC(=O)CN(C)Cc2ccc(C)o2)cc1", "stereo": "centres unmarked", "A": -2.902, "B": 9.184, "C": -3.629, "D": 18.84, "E": 19.44}
{"compound": "CC1Oc2c(cccc2C(=O)N2CCN(CC(C)(C)O)CC2)NC1=O", "stereo": "centres unmarked", "A": -10.36, "B": 9.845, "C": -1.192, "D": -0.4348, "E": 23.6}
{"compound": "Cc1[nH]ncc1CCCNC(=O)Nc1ccc(F)cc1", "A": -7.63, "B": 0.9852, "C": 6.479, "D": 2.066, "E": 17.81}
{"compound": "Cc1nc(N2CCCC2)nc2c1CCN(C(=O)C1CCCC1)CC2", "A": -34.9, "B": 1.639, "C": 3.719, "D": -5.81, "E": 23.3}
{"compound": "Fc1ccc(C(CNc2ccncn2)N2CCCCC2)cc1", "stereo": "centres unmarked", "A": -11.94, "B": 5.941, "C": 21.5, "D": 33.33, "E": 12.09}
{"compound": "Cc1n[nH]c(C2CN(C(=O)c3ccn(C)c(=O)c3)CCO2)n1", "stereo": "centres unmarked", "A": -6.933, "B": 10.39, "C": 13.96, "D": 16.54, "E": 17.14}
{"compound": "O=C(NCCCN1CCCC1=O)Nc1ccc(Br)cc1Cl", "A": -38.22, "B": 0.5464, "C": 0.1901, "D": 3.1, "E": 13.59}
{"compound": "CC(C)NC(=O)Cn1ccc2c(Cl)cccc21", "A": -1.801, "B": 9.942, "C": -16.58, "D": 12.05, "E": 13.16}

The last 3 entries again:

| Compound | A | B | C | D | E |
|---|---|---|---|---|---|
| `Cc1n[nH]c(C2CN(C(=O)c3ccn(C)c(=O)c3)CCO2)n1` (centres unmarked) | -6.933 | 10.39 | 13.96 | 16.54 | 17.14 |
| `O=C(NCCCN1CCCC1=O)Nc1ccc(Br)cc1Cl` | -38.22 | 0.5464 | 0.1901 | 3.1 | 13.59 |
| `CC(C)NC(=O)Cn1ccc2c(Cl)cccc21` | -1.801 | 9.942 | -16.58 | 12.05 | 13.16 |